Measured values taken from the supplement of paper PMC10849652.
The other results are listed elsewhere or left out.

Sequences of proteins named here, by UniProt entry; tags and fusion partners are left off. A change or cut given only in a name is not applied to a line headed by its entry.
UniProt Q15063: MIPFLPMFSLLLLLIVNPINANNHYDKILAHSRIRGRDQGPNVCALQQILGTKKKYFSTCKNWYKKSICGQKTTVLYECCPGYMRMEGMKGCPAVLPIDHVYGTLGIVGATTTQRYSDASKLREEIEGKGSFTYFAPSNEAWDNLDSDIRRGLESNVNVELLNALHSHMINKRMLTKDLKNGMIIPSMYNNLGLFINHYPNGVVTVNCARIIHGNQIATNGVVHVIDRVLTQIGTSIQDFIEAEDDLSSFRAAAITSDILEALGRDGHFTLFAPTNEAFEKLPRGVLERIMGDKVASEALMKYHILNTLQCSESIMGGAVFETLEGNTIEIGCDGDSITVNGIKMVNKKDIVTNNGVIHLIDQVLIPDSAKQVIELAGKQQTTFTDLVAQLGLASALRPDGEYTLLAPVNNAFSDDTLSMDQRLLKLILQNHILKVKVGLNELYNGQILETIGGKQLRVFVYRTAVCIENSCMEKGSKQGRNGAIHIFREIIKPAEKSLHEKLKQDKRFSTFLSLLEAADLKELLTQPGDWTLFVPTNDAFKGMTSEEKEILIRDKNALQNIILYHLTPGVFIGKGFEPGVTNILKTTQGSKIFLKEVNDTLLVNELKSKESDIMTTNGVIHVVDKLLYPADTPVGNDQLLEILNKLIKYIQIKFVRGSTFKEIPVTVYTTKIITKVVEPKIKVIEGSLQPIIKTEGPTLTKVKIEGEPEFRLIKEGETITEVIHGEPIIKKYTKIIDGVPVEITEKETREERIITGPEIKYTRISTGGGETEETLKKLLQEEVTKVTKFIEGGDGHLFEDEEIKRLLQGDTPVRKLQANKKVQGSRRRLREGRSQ
UniProt Q9UNA4: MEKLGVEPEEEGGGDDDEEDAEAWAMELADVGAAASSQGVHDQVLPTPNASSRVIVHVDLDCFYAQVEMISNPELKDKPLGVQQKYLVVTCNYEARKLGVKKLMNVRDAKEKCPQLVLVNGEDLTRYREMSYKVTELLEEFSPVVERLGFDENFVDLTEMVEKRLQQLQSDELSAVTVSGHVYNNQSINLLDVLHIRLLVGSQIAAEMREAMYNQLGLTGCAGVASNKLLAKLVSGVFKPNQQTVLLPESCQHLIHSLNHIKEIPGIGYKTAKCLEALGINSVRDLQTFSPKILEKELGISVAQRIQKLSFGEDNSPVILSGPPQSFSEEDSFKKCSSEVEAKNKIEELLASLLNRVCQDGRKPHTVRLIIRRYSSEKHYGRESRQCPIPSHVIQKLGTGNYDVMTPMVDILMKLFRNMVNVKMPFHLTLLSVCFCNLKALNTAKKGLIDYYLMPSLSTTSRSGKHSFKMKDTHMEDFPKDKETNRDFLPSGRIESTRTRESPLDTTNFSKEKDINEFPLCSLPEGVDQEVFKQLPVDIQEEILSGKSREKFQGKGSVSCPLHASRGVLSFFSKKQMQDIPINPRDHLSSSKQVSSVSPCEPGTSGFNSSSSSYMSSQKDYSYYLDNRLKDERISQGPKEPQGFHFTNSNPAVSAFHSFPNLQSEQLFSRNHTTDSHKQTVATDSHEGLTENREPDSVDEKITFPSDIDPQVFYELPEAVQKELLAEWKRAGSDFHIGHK
UniProt P41247: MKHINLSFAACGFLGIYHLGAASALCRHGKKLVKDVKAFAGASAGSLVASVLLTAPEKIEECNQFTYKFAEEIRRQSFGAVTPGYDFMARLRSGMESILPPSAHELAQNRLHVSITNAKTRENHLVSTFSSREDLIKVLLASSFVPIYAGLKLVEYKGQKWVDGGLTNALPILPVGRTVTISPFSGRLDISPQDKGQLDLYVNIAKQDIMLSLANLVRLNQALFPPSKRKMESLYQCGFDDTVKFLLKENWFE
UniProt P45877: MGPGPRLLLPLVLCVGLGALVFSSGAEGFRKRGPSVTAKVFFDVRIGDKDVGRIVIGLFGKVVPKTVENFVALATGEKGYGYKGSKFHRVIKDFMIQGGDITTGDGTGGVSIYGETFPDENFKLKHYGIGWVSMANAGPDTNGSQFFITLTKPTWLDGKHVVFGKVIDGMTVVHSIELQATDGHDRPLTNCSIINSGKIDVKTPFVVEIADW
UniProt O43157, whole entry, looked up: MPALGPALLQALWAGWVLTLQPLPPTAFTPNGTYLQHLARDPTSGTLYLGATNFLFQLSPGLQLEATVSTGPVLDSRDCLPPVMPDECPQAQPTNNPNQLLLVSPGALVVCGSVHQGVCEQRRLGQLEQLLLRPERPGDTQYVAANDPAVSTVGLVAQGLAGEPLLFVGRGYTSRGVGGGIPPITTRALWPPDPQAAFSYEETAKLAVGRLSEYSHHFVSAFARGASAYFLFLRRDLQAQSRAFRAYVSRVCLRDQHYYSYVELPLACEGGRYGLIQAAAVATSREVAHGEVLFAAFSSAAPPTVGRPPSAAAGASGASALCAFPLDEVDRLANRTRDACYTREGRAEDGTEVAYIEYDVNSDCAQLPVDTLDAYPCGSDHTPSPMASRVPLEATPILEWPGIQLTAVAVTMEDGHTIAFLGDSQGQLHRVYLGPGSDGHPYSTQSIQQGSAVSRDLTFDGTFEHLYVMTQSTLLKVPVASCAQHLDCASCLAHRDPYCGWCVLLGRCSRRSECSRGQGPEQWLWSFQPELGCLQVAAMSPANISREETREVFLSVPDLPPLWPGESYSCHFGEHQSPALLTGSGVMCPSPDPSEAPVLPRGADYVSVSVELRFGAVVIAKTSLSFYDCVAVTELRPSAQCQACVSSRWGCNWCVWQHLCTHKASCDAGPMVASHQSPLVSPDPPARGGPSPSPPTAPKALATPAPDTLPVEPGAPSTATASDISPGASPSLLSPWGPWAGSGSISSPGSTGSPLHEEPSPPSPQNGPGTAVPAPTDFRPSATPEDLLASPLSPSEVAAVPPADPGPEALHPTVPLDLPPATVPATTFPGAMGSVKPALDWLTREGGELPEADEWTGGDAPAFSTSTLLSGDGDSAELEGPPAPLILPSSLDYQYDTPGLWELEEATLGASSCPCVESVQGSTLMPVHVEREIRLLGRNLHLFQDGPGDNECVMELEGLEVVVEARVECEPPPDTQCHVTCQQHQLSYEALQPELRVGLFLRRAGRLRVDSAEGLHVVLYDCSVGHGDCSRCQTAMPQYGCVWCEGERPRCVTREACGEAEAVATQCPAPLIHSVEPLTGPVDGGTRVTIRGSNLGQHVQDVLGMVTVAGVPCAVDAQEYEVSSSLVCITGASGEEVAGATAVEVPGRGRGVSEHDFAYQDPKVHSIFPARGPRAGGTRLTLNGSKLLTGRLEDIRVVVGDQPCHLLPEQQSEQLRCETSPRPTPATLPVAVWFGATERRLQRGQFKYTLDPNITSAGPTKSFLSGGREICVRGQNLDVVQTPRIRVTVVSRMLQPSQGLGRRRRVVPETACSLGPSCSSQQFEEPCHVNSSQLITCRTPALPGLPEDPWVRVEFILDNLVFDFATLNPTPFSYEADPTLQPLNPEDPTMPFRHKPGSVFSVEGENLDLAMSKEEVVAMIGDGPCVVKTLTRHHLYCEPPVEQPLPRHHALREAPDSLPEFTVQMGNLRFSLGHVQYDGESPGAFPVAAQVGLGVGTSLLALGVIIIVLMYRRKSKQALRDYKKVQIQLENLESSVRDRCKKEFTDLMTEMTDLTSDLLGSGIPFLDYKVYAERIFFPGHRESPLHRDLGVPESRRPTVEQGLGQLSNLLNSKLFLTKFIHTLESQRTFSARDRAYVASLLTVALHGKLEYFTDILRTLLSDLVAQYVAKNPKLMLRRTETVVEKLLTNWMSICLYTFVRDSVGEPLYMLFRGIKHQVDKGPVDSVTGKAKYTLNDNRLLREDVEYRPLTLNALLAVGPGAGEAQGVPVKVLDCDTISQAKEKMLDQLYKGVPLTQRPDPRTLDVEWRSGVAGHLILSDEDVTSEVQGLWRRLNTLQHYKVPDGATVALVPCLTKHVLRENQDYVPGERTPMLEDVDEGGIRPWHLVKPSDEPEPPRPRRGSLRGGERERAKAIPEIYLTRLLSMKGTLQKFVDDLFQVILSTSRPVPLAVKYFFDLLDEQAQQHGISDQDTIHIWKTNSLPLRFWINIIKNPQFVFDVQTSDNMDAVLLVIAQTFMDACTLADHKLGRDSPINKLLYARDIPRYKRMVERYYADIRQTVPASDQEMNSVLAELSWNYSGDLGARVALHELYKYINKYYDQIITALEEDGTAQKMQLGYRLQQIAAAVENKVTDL
UniProt Q9NW61: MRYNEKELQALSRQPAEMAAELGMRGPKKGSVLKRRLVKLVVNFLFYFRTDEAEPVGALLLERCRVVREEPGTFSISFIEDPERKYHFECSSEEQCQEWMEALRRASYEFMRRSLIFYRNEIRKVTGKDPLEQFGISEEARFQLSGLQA
UniProt Q9NRY6: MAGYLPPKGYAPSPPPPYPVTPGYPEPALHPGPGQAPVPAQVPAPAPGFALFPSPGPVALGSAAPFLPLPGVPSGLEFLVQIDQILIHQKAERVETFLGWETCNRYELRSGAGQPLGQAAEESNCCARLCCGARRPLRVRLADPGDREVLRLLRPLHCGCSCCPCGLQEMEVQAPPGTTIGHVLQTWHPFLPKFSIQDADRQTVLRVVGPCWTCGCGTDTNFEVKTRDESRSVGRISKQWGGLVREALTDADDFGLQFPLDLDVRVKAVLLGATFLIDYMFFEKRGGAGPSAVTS
UniProt P55058, whole entry, looked up: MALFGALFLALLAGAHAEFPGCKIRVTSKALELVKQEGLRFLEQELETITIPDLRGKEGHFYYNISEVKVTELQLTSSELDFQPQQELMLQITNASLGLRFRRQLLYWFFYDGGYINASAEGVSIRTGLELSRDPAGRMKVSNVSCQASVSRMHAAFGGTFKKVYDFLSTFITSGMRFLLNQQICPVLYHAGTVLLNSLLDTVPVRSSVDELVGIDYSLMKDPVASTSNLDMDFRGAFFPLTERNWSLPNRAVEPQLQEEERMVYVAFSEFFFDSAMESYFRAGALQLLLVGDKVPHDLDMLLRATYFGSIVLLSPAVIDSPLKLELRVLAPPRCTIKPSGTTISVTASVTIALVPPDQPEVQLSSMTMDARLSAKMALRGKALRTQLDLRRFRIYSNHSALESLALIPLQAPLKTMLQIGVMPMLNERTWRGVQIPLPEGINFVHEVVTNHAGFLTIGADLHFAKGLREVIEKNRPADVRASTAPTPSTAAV
UniProt Q92871: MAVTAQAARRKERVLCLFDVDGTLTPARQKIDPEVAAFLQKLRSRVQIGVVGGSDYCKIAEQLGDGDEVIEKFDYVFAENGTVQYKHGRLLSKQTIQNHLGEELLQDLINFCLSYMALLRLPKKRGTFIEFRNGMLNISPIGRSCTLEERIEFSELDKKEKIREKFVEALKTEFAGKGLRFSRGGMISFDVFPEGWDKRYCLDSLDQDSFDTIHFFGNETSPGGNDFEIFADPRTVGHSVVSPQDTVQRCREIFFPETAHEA
UniProt Q8NBT0: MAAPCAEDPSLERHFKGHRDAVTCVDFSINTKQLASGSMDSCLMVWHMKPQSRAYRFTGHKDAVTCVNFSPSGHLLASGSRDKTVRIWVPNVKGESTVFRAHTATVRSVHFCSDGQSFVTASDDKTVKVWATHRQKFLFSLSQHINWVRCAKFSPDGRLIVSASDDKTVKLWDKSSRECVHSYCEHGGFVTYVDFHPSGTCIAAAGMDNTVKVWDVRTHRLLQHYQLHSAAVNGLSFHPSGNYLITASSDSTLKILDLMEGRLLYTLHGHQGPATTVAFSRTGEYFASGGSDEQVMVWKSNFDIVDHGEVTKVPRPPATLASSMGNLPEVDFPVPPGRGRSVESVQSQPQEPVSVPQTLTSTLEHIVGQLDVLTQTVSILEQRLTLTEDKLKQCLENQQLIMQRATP
UniProt Q8TC44: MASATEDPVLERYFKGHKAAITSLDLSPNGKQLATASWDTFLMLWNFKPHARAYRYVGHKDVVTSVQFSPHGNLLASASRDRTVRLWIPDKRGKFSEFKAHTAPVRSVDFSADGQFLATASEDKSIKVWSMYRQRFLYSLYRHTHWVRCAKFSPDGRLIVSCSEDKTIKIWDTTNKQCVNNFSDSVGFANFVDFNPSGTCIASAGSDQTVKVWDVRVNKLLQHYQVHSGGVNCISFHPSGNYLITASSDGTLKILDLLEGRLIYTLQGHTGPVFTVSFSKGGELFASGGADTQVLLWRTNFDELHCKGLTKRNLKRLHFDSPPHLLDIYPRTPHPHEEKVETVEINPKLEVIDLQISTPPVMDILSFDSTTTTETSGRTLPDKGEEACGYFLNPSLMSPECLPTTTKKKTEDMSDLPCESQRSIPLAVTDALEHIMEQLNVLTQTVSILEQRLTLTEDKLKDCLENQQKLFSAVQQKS
UniProt Q8IY26: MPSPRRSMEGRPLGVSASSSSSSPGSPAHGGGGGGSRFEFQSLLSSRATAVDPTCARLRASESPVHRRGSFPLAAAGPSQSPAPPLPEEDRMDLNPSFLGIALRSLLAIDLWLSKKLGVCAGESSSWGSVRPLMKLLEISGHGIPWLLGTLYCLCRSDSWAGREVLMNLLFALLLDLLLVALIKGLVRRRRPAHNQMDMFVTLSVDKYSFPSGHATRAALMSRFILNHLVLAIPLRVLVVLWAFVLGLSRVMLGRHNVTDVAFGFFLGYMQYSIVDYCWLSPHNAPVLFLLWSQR

Experiments:
Assay in all cases: log2 fold change, soluble protein after heating vs DMSO (PISA); higher = thermal stabilisation; K562 lysate, 10 uM; active = over 0.2 and 3.5 SD of the protein, either way, in both replicates (recomputed)
ibrutinib = compound: C=CC(=O)N1CCC[C@@H](n2nc(-c3ccc(Oc4ccccc4)cc3)c3c(N)ncnc32)C1 [ibrutinib]
How it was run: (§1)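 Quantification was by TMTpro 16plex LC-MS/MS with equalised channel sums, applied to the supernatant after 21,000xg for 90 min. Samples were crude K562 extract at 1 mg/mL protein in PBS pH 7.4 with 1 mM MgCl2, treated with 10 μM compound for 30 min, heated for 3 min across 48°C-58°C, pooled and brought to 0.5% NP-40 at 4°C. Values are log-two fold changes in thermal stability relative to solvent controls, from duplicates.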

ralimetinib = compound: CC(C)(C)Cn1c(N)nc2ccc(-c3[nH]c(C(C)(C)C)nc3-c3ccc(F)cc3)nc21 [ralimetinib]
How it was run: as §1

[1] = compound: CC(C)(O)CC(=O)NCCn1ccc2ncnc(Nc3ccc(Oc4cccc(C(F)(F)F)c4)c(Cl)c3)c21
How it was run: as §1

[2] = compound: CC(C)C1=C2N=C(C=C(N2N=C1)NCC3=CC=CC=C3)NCCCCCCN
How it was run: as §1

[3] = compound: CC1=C(C=C(C=C1)NC(=O)C2=CC(=CC=C2)C(C)(C)C#N)NC3=CC4=C(C=C3)N=CN(C4=O)C
How it was run: as §1

[4] = compound: CC1=C(C=C(C=C1)NC(=O)C2=CC(=CC=C2)N(C)C)NC(=O)C3=CC=C(C=C3)O
How it was run: as §1

vemurafenib = compound: CCCS(=O)(=O)Nc1ccc(F)c(C(=O)c2c[nH]c3ncc(-c4ccc(Cl)cc4)cc23)c1F [vemurafenib]
How it was run: as §1

barasertib = compound: CCN(CCCOc1ccc2c(Nc3cc(CC(=O)Nc4cccc(F)c4)[nH]n3)ncnc2c1)CCOP(=O)(O)O [barasertib]
How it was run: as §1

[5] = compound: CC[C@@H]1C(=O)N(C)c2cnc(Nc3ccc(C(=O)NC4CCN(C)CC4)cc3OC)nc2N1C1CCCC1
How it was run: as §1

[6] = compound: CCn1c(C(=O)N(C2CC2)C2CC2)cc2c3c(ncn3C)c(Nc3cc(C)n(C)n3)nc21
How it was run: as §1

[7] = compound: CCn1cc(-c2ccnc3[nH]c(-c4cccc(CN(C)C)c4)cc23)c(-c2ccc(NC(=O)N(C)C)cc2)n1
How it was run: as §1

[8] = compound: CN1CCC(CNc2ccc3ncc(-c4cccc(OC(F)(F)F)c4)n3n2)CC1
How it was run: as §1

sotrastaurin = compound: CN1CCN(c2nc(C3=C(c4c[nH]c5ccccc45)C(=O)NC3=O)c3ccccc3n2)CC1 [sotrastaurin]
How it was run: as §1

[9] = compound: CC1=C(C2=C(C=C1)C(=O)C3=CC=CC=C3N2CCCN)C
How it was run: as §1

saracatinib = compound: CN1CCN(CCOc2cc(OC3CCOCC3)c3c(Nc4c(Cl)ccc5c4OCO5)ncnc3c2)CC1 [saracatinib]
How it was run: as §1

[10] = compound: CC1=C(C(CC(=O)N1)C2=CC=C(C=C2)C(F)(F)F)C(=O)NC3=C(C=C4C(=C3)C=NN4)F
How it was run: as §1

[11] = compound: CC(=O)c1cnc2ccc(-c3cc(Cl)c(O)c(Cl)c3)nc2c1N[C@H]1CC[C@H](CN(C)C)CC1
How it was run: as §1

[12] = compound: CC1=CC=C(C=C1)SC2=C3C=C(SC3=CN=C2)C(=O)N
How it was run: as §1

[13] = compound: CCCS(=O)(=O)Nc1ccc(F)c(C(=O)c2c[nH]c3ncc(Cl)cc23)c1F
How it was run: as §1

volasertib = compound: CC[C@@H]1C(=O)N(C)c2cnc(Nc3ccc(C(=O)N[C@H]4CC[C@H](N5CCN(CC6CC6)CC5)CC4)cc3OC)nc2N1C(C)C [volasertib]
How it was run: as §1

Measured: log2 fold change

POSTN (UniProt Q15063)
inactive: ibrutinib -0.001 | ralimetinib -0.089 | [1] -0.129 | [2] -0.094 | [3] 0.088 | [4] 0.073 | vemurafenib -0.091 | barasertib -0.012 | [5] 0.088 | [6] -0.029 | [7] 0.073 | [8] -0.046 | sotrastaurin -0.042

PML isoform 11 (UniProt P29590)
inactive: [9] 0.03 | vemurafenib 0.078 | [5] -0.026 | [7] -0.083 | [8] -0.095 | saracatinib -0.088

POLI (UniProt Q9UNA4)
inactive: [10] 0.158 | [3] 0.108 | sotrastaurin 0.183

PNPLA4 (UniProt P41247)
inactive: ralimetinib 0.14 | [1] -0.099 | [9] -0.116 | [3] -0.052 | [4] 0.046 | vemurafenib 0.098 | [5] 0.002 | [6] -0.111 | [7] 0.165 | [8] 0.414 | saracatinib 0.009 | sotrastaurin -0.013

PPIC (UniProt P45877)
active: sotrastaurin -0.453
inactive: ibrutinib 0.278 | ralimetinib -0.17 | [1] 0.057 | [2] -0.021 | [10] -0.139 | [9] 0.138 | [3] 0.102 | [4] 0.05 | vemurafenib -0.009 | barasertib 0.203 | [6] 0.078 | [7] -0.112 | [8] 0.124 | saracatinib -0.004

PLXNB1 (UniProt O43157)
inactive: ralimetinib -0.01 | [1] -0.16 | [2] -0.241 | [10] -0.048 | [9] -0.104 | [3] 0.011 | [4] -0.002 | [6] 0.095 | saracatinib -0.055 | sotrastaurin -0.014

PLEKHJ1 (UniProt Q9NW61)
inactive: ralimetinib -0.003 | [1] -0.001 | [2] 0.017 | [3] 0.004 | [4] -0.02 | [6] 0.106 | [7] -0.132 | [8] -0.04 | sotrastaurin 0.027

PPFIBP1 (UniProt Q86W92)
inactive: [3] -0.123 | [5] -0.115 | sotrastaurin 0.033

PLSCR3 (UniProt Q9NRY6)
inactive: [11] -0.01 | [9] -0.139 | [3] -0.061 | [12] 0.014 | vemurafenib 0 | [13] -0.058 | [5] 0.052 | volasertib -0.012 | [7] 0.053 | [8] -0.003 | saracatinib -0.046 | sotrastaurin -0.004

PNMT (UniProt P11086)
inactive: [11] 0.076 | ralimetinib -0.143 | [1] -0.243 | [2] 0.007 | [3] 0.079 | [4] 0.357 | [12] 0.021 | vemurafenib 0.161 | [13] 0.121 | volasertib 0.017 | [6] 0.099 | sotrastaurin -0.028

PLTP (UniProt P55058)
inactive: ralimetinib -0.059 | [1] -0.062 | [2] 0.172 | [10] 0.688 | [9] -0.019 | [4] 0.031 | vemurafenib 0.095 | [6] 0.035 | [7] 0.317 | [8] -0.176 | saracatinib 0.073

PMM1 (UniProt Q92871)
inactive: ibrutinib -0.075 | ralimetinib -0.016 | [1] -0.069 | [2] -0.009 | [10] 0.024 | [9] 0.03 | [3] 0.052 | [4] 0.012 | vemurafenib -0.022 | barasertib -0.027 | [5] -0.01 | [6] 0.031 | [7] -0.051 | [8] 0.077 | saracatinib 0.066 | sotrastaurin 0

POGZ (UniProt Q7Z3K3)
inactive: [11] -0.165 | ralimetinib -0.013 | [1] -0.039 | [10] -0.071 | [9] -0.096 | [3] -0.051 | [4] -0.109 | [12] -0.022 | vemurafenib 0.032 | [13] -0.041 | [5] 0.182 | volasertib -0.009 | [6] -0.082 | [7] -0.065 | [8] -0.253 | saracatinib 0.023 | sotrastaurin 0.049

Quoted from above (2 entries):
PNMT (UniProt P11086)
inactive: [11] 0.076 | ralimetinib -0.143 | [1] -0.243 | [2] 0.007 | [3] 0.079 | [4] 0.357 | [12] 0.021 | vemurafenib 0.161 | [13] 0.121 | volasertib 0.017 | [6] 0.099 | sotrastaurin -0.028

PLTP (UniProt P55058)
inactive: ralimetinib -0.059 | [1] -0.062 | [2] 0.172 | [10] 0.688 | [9] -0.019 | [4] 0.031 | vemurafenib 0.095 | [6] 0.035 | [7] 0.317 | [8] -0.176 | saracatinib 0.073

Continued.

POC1A (UniProt Q8NBT0)
inactive: [11] 0.146 | [10] -0.039 | [3] -0.111 | [12] -0.051 | vemurafenib -0.155 | [13] 0.128 | [5] -0.268 | volasertib -0.277 | [7] 0.177 | [8] 0.263 | sotrastaurin 0.122

POC1B (UniProt Q8TC44)
inactive: ralimetinib 0.064 | [1] 0.073 | [2] 0.017 | [9] -0.054 | [4] -0.036 | vemurafenib -0.347 | [5] 0.149 | [6] 0.043 | saracatinib 0.144

POLR2F (UniProt U3KPV3)
inactive: [9] 0.223 | [5] 0.13 | saracatinib -0.051

PLPP6 (UniProt Q8IY26)
inactive: ralimetinib 0.026 | [1] 0.006 | [2] 0.021 | [10] 0.041 | [9] -0.062 | [3] 0.149 | [4] 0.027 | vemurafenib 0.094 | [6] 0.041 | [7] 0.011 | [8] -0.071 | saracatinib 0.07 | sotrastaurin 0.003
